Laboratory results taken from the supplement of paper PMC10849652.
Some of the results follow.

The chains behind the UniProt entries cited, without tags or fusion partners. Where a name states a change or a piece, a line headed by the entry shows the natural chain unless it says otherwise.
UniProt Q96CD2: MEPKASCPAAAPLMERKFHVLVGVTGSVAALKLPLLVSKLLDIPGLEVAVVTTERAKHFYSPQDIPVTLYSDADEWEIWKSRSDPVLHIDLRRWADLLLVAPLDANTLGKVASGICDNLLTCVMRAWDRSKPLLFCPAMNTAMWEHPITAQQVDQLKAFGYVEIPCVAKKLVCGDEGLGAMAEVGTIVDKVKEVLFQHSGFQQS
UniProt P49005: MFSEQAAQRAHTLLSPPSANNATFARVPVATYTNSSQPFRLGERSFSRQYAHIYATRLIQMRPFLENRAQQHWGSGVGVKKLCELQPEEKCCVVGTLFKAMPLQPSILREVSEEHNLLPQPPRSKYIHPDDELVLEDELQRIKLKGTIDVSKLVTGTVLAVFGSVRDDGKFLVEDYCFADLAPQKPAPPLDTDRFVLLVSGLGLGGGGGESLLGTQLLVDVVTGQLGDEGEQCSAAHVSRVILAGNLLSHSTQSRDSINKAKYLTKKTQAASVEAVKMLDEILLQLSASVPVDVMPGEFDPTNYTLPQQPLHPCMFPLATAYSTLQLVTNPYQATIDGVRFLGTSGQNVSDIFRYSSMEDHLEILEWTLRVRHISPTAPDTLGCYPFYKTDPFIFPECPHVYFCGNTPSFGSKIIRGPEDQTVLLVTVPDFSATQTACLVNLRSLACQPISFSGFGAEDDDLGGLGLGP
UniProt Q8NAT1: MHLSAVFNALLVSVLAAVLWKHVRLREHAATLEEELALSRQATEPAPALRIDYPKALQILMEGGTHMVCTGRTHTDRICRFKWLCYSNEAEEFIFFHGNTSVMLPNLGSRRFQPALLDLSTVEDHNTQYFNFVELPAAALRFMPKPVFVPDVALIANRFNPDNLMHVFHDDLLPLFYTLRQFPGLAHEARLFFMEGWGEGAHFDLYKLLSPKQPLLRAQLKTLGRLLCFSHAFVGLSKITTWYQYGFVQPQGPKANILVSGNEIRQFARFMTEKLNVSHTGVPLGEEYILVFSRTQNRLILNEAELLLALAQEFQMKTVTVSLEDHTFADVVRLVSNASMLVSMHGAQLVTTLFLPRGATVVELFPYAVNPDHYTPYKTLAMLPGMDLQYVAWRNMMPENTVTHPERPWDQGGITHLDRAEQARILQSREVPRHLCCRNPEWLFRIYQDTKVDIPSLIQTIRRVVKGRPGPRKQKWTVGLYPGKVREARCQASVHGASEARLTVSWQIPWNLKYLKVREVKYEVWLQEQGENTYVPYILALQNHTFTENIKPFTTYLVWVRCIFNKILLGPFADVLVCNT
UniProt Q96HA1, whole entry, looked up: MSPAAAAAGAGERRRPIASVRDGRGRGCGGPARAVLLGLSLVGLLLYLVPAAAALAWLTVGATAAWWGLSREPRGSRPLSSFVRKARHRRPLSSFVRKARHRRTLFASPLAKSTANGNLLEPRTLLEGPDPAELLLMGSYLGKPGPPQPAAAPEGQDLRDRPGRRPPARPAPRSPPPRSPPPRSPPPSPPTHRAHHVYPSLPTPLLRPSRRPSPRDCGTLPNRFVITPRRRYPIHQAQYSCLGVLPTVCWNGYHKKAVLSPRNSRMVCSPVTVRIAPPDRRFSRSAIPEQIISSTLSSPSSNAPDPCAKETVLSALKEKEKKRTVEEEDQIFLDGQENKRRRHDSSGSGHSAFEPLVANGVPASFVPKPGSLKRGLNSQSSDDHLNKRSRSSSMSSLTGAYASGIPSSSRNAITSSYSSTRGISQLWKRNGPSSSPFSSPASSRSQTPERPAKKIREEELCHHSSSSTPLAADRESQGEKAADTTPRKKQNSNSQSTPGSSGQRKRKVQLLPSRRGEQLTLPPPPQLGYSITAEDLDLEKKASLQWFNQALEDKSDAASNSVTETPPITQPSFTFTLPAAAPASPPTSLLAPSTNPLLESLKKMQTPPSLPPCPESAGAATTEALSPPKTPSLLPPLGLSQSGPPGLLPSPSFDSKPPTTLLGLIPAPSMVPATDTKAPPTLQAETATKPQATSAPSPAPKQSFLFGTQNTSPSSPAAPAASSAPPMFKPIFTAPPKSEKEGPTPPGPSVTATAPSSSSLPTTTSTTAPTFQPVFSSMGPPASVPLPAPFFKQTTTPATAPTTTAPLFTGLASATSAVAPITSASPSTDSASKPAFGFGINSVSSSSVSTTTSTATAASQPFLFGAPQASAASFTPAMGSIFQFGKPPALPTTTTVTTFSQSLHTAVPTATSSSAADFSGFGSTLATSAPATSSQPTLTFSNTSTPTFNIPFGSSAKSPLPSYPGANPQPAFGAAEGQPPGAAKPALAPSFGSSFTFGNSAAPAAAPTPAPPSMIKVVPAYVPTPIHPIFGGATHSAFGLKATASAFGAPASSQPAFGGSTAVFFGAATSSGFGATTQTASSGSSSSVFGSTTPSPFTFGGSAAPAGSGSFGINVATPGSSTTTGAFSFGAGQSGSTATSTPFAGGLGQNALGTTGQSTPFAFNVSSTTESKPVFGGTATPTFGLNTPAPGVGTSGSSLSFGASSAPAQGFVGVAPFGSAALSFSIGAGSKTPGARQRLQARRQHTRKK
UniProt O75334: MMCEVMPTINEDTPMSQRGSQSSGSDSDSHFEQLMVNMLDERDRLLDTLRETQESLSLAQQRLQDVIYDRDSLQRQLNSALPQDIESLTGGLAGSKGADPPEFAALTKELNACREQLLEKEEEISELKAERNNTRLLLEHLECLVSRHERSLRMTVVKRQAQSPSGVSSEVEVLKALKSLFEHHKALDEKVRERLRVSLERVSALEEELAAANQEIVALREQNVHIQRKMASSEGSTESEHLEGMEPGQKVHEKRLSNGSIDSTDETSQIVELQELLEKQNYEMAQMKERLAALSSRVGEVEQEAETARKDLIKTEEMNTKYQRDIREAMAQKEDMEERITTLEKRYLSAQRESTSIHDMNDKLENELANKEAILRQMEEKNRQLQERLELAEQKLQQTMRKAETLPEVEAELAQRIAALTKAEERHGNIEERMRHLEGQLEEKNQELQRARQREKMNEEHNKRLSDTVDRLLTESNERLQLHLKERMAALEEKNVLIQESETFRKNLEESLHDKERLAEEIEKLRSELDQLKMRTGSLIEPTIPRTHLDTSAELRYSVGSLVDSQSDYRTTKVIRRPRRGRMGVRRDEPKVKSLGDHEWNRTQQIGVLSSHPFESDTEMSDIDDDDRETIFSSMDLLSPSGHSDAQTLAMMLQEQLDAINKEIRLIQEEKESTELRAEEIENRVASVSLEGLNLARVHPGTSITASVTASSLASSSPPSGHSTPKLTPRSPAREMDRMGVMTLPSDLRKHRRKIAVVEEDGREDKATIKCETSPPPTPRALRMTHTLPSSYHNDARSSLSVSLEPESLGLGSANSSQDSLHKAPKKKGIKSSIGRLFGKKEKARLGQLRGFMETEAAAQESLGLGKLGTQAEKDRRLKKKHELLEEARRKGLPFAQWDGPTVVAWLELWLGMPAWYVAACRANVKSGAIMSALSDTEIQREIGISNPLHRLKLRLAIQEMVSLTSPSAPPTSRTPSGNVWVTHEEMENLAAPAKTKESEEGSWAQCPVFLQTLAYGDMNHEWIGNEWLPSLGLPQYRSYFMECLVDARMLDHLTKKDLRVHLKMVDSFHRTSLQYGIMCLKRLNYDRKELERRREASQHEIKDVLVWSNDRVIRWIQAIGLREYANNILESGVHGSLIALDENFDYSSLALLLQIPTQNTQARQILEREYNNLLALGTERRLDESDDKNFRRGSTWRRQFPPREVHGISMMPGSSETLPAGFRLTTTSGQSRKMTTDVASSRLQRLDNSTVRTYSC
UniProt Q15181: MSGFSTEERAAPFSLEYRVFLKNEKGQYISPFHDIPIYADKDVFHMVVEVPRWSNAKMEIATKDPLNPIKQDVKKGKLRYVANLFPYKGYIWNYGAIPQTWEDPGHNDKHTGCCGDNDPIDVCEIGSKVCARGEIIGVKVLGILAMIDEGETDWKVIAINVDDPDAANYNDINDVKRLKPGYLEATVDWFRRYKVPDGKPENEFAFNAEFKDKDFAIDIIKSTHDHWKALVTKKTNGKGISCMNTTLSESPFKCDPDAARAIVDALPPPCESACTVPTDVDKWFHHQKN
UniProt Q9NUX5: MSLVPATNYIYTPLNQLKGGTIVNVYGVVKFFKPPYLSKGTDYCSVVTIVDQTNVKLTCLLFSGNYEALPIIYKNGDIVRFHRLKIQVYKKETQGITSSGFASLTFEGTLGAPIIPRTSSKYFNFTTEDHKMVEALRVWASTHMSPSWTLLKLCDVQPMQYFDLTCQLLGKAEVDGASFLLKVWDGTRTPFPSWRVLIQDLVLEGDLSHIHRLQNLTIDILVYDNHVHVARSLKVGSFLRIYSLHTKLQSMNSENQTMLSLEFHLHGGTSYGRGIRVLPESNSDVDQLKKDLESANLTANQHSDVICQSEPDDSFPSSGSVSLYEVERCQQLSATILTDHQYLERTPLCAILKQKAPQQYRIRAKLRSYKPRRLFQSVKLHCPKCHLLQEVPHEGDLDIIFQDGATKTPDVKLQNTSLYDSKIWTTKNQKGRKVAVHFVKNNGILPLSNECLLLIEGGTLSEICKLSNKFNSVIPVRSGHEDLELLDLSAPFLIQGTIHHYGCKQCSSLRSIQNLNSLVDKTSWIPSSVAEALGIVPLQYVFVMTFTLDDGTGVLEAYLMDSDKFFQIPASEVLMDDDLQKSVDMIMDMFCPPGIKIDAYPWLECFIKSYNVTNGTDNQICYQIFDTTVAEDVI
UniProt Q6EEV4: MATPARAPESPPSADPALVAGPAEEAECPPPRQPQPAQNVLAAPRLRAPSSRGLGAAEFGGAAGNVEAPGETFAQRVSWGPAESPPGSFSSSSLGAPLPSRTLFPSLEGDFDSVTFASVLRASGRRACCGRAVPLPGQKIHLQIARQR
UniProt O15160, whole entry, looked up: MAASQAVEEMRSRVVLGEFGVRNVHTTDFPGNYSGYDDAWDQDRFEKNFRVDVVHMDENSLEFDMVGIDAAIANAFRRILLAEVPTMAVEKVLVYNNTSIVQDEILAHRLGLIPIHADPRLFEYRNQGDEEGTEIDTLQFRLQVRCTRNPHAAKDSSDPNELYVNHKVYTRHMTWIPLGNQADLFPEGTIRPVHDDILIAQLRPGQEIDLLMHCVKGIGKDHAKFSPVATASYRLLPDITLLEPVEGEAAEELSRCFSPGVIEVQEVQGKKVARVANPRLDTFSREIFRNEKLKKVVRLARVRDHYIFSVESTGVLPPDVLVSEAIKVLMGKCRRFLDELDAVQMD

What was measured:
Assay in all cases: log2 fold change, soluble protein after heating vs DMSO (PISA); higher = thermal stabilisation; K562 lysate, 10 uM; active = over 0.2 and 3.5 SD of the protein, either way, in both replicates (recomputed)
[1] = compound: CCCS(=O)(=O)Nc1ccc(F)c(C(=O)c2c[nH]c3ncc(-c4ccc(Cl)cc4)cc23)c1F [vemurafenib]
Method in brief: (§1)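 Values give the log-two fold change in thermal stability against solvent controls, from duplicates. Crude K562 extract at 1 mg/mL protein, made by dounce homogenisation in PBS pH 7.4 with 1 mM MgCl2, was treated with 10 μM compound for 30 min. After 3 min heating across 48°C-58°C, aliquots were pooled, adjusted to 0.5% NP-40 at 4°C and centrifuged at 21,000xg for 90 min. The supernatant was measured by TMTpro 16plex LC-MS/MS with channel sums equalised.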

[2] = compound: CCCS(=O)(=O)Nc1ccc(F)c(C(=O)c2c[nH]c3ncc(Cl)cc23)c1F
Method in brief: as §1

[3] = compound: CCN(CCCOc1ccc2c(Nc3cc(CC(=O)Nc4cccc(F)c4)[nH]n3)ncnc2c1)CCOP(=O)(O)O [barasertib]
Method in brief: as §1

[4] = compound: CC[C@@H]1C(=O)N(C)c2cnc(Nc3ccc(C(=O)NC4CCN(C)CC4)cc3OC)nc2N1C1CCCC1
Method in brief: as §1

[5] = compound: CC[C@@H]1C(=O)N(C)c2cnc(Nc3ccc(C(=O)N[C@H]4CC[C@H](N5CCN(CC6CC6)CC5)CC4)cc3OC)nc2N1C(C)C [volasertib]
Method in brief: as §1

[6] = compound: CCn1c(C(=O)N(C2CC2)C2CC2)cc2c3c(ncn3C)c(Nc3cc(C)n(C)n3)nc21
Method in brief: as §1

[7] = compound: CCn1cc(-c2ccnc3[nH]c(-c4cccc(CN(C)C)c4)cc23)c(-c2ccc(NC(=O)N(C)C)cc2)n1
Method in brief: as §1

[8] = compound: CN1CCC(CNc2ccc3ncc(-c4cccc(OC(F)(F)F)c4)n3n2)CC1
Method in brief: as §1

[9] = compound: CN1CCN(CCOc2cc(OC3CCOCC3)c3c(Nc4c(Cl)ccc5c4OCO5)ncnc3c2)CC1 [saracatinib]
Method in brief: as §1

[10] = compound: CN1CCN(c2nc(C3=C(c4c[nH]c5ccccc45)C(=O)NC3=O)c3ccccc3n2)CC1 [sotrastaurin]
Method in brief: as §1

[11] = compound: CN1CC[C@H](c2c(O)cc(O)c3c(=O)cc(-c4ccccc4Cl)oc23)[C@H](O)C1 [alvocidib]
Method in brief: as §1

[12] = compound: CN1CCc2c(c3ccccc3n2Cc2ccc(C(=O)NO)cc2)C1 [Tubastatin A]
Method in brief: as §1

[13] = compound: CNC(=O)C1=CC=CC=C1NC2=NC(=NC=C2Cl)NC3=C(C=C(C=C3)N4CCOCC4)OC
Method in brief: as §1

[14] = compound: CNC(=O)c1ccc(Nc2ncc(C(F)(F)F)c(NCc3nccnc3N(C)S(C)(=O)=O)n2)cc1 [defactinib]
Method in brief: as §1

[15] = compound: CNc1nc(-c2ccc3c(N)n[nH]c3c2)cc(N2C[C@@H](C(=O)NC3CCCCC3)CC[C@H]2C)n1
Method in brief: as §1

[16] = compound: COC(=O)N[C@@H](C)CNc1nccc(-c2cn(C(C)C)nc2-c2cc(Cl)cc(NS(C)(=O)=O)c2F)n1 [encorafenib]
Method in brief: as §1

[17] = compound: COC(=O)[C@H](CCSC)NC(=O)C1=C(C=C(C=C1)NC[C@H](CS)N)C2=CC=CC=C2
Method in brief: as §1

[18] = compound: COc1cc(Nc2ncc3c(n2)-c2ccc(Cl)cc2C(c2c(F)cccc2OC)=NC3)ccc1C(=O)O [alisertib]
Method in brief: as §1

[19] = compound: COc1cc2nc(-c3cc(F)ccc3O)nc(N[C@@H]3CNC[C@H]3C(C)(C)O)c2cc1OC
Method in brief: as §1

[20] = compound: COc1cc2ncnc(Nc3ccc(F)c(Cl)c3)c2cc1OCCCN1CCOCC1 [gefitinib]
Method in brief: as §1

Measured: log2 fold change

PPCDC (UniProt Q96CD2)
inactive: [1] 0.1 | [2] 0.003 | [3] 0.066 | [4] 0.047 | [5] 0.006 | [6] 0.008 | [7] -0.342 | [8] 0.165 | [9] 0.018 | [10] 0.038 | [11] -0.08 | [12] 0.034 | [13] -0.053 | [14] -0.037 | [15] -0.054 | [16] -0.082 | [17] -0.027 | [18] -0.051 | [19] 0.032 | [20] 0.028

POLD2 (UniProt P49005)
inactive: [1] 0.044 | [2] 0.023 | [3] -0.006 | [4] 0.035 | [5] -0.004 | [6] 0.01 | [7] -0.127 | [8] 0.043 | [9] -0.003 | [10] -0.025 | [11] 0.003 | [12] 0.013 | [13] 0.034 | [14] 0.034 | [15] -0.003 | [16] -0.063 | [17] -0.006 | [18] -0.009 | [19] -0.015 | [20] -0.005

POLE (UniProt Q07864)
inactive: [1] 0.046 | [2] -0.013 | [3] 0.013 | [4] 0.001 | [5] -0.033 | [6] -0.004 | [7] -0.041 | [8] -0.04 | [9] 0.046 | [10] 0.02 | [11] 0.003 | [12] -0.107 | [13] 0.06 | [14] 0.02 | [15] -0.035 | [16] 0.07 | [17] 0.045 | [18] -0.002 | [19] -0.009 | [20] -0.051

POMGNT2 (UniProt Q8NAT1)
inactive: [1] 0.049 | [2] -0.128 | [4] 0.03 | [5] 0.089 | [6] -0.051 | [7] -0.048 | [8] 0.04 | [9] 0.007 | [10] -0.095 | [11] 0.031 | [12] 0.081 | [13] -0.002 | [14] 0.109 | [15] 0.017 | [16] -0.157 | [17] 0.211 | [18] -0.1 | [19] 0.034 | [20] 0.072

POM121 (UniProt Q96HA1)
inactive: [1] -0.018 | [2] -0.038 | [3] 0.024 | [4] -0.008 | [5] 0.064 | [6] -0.061 | [7] -0.199 | [8] 0.088 | [9] 0.09 | [10] -0.009 | [11] -0.02 | [12] 0.087 | [13] 0.08 | [14] -0.029 | [15] 0.069 | [16] 0.082 | [17] -0.014 | [19] 0.051

PPFIA2 (UniProt O75334)
inactive: [1] 0.062 | [2] -0.018 | [3] 0.054 | [4] 0.01 | [5] 0.02 | [6] -0.127 | [7] -0.255 | [8] 0.146 | [9] -0.016 | [10] -0.05 | [11] -0.107 | [12] 0.021 | [13] 0.022 | [14] -0.011 | [15] -0.026 | [16] -0.082 | [17] -0.029 | [18] -0.007 | [19] 0.012 | [20] 0.057

PPA1 (UniProt Q15181)
inactive: [1] 0.01 | [2] -0.017 | [3] -0.018 | [4] 0.074 | [5] -0.004 | [6] -0.039 | [7] 0.21 | [8] -0.036 | [9] 0.006 | [10] -0.016 | [11] 0.05 | [12] 0.048 | [13] -0.025 | [14] 0.004 | [15] 0.018 | [16] -0.025 | [17] -0.005 | [18] 0.009 | [19] 0.01 | [20] -0.053

POT1 (UniProt Q9NUX5)
inactive: [1] 0.07 | [2] -0.062 | [3] 0.066 | [4] -0.007 | [5] -0.014 | [6] -0.034 | [7] 0.007 | [8] -0.028 | [9] -0.008 | [10] -0.012 | [11] 0.06 | [12] -0.029 | [13] 0.027 | [14] 0.075 | [15] -0.024 | [16] -0.056 | [17] 0.03 | [18] -0.064 | [19] -0.011 | [20] 0.048

POLR2M (UniProt Q6EEV4)
inactive: [1] 0.117 | [2] -0.043 | [3] 0.176 | [4] 0.032 | [5] -0.074 | [7] 0.154 | [8] -0.077 | [9] 0.016 | [10] -0.072 | [11] 0.085 | [13] 0.075 | [14] 0.125 | [15] 0.108 | [16] -0.001 | [17] -0.081 | [19] 0.038

2 records drawn at random from the list so far, as already listed:
PPA1 (UniProt Q15181)
inactive: [1] 0.01 | [2] -0.017 | [3] -0.018 | [4] 0.074 | [5] -0.004 | [6] -0.039 | [7] 0.21 | [8] -0.036 | [9] 0.006 | [10] -0.016 | [11] 0.05 | [12] 0.048 | [13] -0.025 | [14] 0.004 | [15] 0.018 | [16] -0.025 | [17] -0.005 | [18] 0.009 | [19] 0.01 | [20] -0.053

POLD2 (UniProt P49005)
inactive: [1] 0.044 | [2] 0.023 | [3] -0.006 | [4] 0.035 | [5] -0.004 | [6] 0.01 | [7] -0.127 | [8] 0.043 | [9] -0.003 | [10] -0.025 | [11] 0.003 | [12] 0.013 | [13] 0.034 | [14] 0.034 | [15] -0.003 | [16] -0.063 | [17] -0.006 | [18] -0.009 | [19] -0.015 | [20] -0.005

The list continues:

POLR1C (UniProt O15160)
inactive: [1] -0.033 | [2] 0.012 | [3] 0.047 | [4] -0.034 | [5] -0.039 | [6] 0.004 | [7] -0.022 | [8] 0.014 | [9] 0.002 | [10] 0.031 | [11] 0 | [12] -0.083 | [13] -0.082 | [14] -0.007 | [15] -0.017 | [16] 0.013 | [17] 0.07 | [18] -0.015 | [19] 0.014 | [20] 0.005
